In the supplement of paper PMC10849652:
The other results are listed elsewhere or left out.

Amino acid sequences for entries named in this document (tags omitted). A change or cut given only in a name is not applied to a line headed by its entry.
UniProt Q92900: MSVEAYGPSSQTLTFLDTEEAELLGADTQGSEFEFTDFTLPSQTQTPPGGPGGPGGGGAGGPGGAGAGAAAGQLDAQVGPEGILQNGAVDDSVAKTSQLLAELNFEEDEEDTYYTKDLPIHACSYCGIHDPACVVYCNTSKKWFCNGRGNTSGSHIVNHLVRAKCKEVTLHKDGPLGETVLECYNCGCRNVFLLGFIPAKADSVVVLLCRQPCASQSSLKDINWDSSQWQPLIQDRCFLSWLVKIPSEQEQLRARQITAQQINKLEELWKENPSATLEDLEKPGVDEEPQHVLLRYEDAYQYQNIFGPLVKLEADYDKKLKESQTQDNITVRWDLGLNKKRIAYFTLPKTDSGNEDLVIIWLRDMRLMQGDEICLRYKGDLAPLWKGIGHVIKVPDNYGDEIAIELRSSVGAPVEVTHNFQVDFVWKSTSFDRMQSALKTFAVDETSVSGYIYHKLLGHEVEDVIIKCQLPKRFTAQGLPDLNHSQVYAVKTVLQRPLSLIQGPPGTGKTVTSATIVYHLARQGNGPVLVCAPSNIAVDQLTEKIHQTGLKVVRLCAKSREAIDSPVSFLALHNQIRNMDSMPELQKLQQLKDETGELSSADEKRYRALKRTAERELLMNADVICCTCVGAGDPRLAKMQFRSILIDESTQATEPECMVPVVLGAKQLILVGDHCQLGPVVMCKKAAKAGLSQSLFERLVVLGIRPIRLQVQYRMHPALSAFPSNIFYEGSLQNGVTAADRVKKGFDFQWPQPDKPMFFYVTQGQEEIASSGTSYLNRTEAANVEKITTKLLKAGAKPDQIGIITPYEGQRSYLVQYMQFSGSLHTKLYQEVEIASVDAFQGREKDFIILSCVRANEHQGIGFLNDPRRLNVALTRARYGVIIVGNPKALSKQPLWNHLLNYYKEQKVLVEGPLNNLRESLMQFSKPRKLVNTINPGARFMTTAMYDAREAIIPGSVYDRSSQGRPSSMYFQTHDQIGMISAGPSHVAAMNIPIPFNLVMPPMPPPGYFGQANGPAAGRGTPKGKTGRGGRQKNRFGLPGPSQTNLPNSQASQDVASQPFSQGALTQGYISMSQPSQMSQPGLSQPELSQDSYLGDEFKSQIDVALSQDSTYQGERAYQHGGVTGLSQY
UniProt Q9NYU1: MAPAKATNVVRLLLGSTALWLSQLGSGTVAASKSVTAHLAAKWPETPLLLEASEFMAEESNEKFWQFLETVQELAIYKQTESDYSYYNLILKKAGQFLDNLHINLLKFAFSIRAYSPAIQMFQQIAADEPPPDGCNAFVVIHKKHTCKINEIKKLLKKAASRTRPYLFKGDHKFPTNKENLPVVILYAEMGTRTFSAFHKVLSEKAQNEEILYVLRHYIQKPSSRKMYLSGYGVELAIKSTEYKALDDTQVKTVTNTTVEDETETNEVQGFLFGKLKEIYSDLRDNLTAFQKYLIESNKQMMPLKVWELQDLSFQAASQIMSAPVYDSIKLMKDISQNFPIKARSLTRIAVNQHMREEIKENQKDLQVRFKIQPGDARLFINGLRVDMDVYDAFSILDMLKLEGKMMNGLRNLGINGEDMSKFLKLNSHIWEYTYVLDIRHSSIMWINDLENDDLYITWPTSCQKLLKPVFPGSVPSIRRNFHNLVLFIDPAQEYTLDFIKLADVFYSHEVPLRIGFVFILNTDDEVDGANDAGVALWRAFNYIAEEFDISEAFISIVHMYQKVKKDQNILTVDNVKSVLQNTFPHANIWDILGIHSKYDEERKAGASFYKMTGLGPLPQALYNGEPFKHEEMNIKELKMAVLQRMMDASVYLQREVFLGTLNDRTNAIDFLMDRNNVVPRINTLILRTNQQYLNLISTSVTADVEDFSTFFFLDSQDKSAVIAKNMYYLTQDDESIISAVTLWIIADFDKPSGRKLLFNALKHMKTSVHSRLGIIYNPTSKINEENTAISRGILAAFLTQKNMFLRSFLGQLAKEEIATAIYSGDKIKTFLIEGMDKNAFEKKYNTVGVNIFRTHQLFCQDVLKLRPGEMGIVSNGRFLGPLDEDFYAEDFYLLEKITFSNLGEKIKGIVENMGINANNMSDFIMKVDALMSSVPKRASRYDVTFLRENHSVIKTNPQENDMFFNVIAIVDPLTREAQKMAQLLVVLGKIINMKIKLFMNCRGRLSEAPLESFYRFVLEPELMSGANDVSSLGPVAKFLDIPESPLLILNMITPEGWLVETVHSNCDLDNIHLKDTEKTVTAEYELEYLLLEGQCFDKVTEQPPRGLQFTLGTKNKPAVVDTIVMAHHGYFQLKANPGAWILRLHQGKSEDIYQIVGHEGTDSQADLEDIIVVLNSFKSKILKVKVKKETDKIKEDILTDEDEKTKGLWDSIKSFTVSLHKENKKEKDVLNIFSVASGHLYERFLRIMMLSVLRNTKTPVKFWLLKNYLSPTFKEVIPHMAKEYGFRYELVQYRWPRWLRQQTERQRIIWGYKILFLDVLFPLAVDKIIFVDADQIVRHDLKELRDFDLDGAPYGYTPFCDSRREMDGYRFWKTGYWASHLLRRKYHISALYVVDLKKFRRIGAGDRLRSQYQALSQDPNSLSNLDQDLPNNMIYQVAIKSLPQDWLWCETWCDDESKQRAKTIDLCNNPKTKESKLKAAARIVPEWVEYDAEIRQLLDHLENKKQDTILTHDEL
UniProt Q96BW1: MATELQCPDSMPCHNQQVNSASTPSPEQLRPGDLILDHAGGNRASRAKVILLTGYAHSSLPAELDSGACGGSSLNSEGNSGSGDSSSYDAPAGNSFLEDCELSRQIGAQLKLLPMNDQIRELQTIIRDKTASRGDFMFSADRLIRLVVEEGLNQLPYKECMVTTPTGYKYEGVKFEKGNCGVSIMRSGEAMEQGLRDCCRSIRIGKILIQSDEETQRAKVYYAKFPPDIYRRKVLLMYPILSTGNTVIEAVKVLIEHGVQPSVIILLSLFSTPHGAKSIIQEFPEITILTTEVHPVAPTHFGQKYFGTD
UniProt O14562: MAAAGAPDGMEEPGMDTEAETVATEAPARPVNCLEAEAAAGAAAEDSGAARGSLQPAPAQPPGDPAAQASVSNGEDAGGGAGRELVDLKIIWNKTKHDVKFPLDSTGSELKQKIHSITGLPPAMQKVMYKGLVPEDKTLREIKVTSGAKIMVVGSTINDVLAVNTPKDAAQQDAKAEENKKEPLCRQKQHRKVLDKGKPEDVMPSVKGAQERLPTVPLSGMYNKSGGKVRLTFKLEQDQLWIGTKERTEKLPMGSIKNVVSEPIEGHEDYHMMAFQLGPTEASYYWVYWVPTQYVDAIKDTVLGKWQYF
UniProt Q9Y6I4: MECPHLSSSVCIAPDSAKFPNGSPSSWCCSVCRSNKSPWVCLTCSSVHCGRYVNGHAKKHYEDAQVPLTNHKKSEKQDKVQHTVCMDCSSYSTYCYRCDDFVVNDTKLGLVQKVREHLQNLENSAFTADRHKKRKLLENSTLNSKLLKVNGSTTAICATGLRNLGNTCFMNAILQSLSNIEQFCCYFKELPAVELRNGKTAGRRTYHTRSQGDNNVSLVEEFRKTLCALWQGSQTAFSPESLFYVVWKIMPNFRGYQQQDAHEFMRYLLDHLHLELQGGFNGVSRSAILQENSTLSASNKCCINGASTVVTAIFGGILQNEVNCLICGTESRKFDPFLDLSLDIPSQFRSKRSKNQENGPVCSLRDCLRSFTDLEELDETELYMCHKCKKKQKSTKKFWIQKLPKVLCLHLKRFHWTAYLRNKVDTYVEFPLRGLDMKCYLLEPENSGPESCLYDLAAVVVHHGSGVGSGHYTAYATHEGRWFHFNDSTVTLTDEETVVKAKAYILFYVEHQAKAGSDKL
UniProt Q8TED0: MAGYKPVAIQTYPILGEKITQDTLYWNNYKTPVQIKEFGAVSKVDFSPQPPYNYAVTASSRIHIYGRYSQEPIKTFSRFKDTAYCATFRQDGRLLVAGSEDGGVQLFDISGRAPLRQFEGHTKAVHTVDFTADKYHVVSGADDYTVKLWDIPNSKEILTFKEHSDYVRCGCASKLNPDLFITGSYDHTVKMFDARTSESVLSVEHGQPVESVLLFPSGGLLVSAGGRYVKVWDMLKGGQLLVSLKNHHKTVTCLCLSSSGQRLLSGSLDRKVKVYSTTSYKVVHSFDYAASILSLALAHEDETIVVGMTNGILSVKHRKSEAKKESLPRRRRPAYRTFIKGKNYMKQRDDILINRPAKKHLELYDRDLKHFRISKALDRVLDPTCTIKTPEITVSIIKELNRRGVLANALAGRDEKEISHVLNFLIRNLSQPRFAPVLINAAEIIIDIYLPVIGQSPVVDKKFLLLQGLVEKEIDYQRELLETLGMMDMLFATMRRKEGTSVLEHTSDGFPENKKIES
UniProt P50552: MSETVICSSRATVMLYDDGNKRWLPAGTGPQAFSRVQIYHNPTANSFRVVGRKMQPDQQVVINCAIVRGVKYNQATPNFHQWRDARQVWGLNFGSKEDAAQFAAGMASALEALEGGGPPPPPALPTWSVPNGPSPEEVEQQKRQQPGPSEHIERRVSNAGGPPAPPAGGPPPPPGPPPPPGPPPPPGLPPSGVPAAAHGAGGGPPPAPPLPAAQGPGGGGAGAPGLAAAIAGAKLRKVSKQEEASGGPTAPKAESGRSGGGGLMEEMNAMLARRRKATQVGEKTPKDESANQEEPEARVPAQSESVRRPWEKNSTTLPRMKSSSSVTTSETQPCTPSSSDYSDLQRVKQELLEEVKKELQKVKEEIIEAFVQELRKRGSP
UniProt Q6BDS2: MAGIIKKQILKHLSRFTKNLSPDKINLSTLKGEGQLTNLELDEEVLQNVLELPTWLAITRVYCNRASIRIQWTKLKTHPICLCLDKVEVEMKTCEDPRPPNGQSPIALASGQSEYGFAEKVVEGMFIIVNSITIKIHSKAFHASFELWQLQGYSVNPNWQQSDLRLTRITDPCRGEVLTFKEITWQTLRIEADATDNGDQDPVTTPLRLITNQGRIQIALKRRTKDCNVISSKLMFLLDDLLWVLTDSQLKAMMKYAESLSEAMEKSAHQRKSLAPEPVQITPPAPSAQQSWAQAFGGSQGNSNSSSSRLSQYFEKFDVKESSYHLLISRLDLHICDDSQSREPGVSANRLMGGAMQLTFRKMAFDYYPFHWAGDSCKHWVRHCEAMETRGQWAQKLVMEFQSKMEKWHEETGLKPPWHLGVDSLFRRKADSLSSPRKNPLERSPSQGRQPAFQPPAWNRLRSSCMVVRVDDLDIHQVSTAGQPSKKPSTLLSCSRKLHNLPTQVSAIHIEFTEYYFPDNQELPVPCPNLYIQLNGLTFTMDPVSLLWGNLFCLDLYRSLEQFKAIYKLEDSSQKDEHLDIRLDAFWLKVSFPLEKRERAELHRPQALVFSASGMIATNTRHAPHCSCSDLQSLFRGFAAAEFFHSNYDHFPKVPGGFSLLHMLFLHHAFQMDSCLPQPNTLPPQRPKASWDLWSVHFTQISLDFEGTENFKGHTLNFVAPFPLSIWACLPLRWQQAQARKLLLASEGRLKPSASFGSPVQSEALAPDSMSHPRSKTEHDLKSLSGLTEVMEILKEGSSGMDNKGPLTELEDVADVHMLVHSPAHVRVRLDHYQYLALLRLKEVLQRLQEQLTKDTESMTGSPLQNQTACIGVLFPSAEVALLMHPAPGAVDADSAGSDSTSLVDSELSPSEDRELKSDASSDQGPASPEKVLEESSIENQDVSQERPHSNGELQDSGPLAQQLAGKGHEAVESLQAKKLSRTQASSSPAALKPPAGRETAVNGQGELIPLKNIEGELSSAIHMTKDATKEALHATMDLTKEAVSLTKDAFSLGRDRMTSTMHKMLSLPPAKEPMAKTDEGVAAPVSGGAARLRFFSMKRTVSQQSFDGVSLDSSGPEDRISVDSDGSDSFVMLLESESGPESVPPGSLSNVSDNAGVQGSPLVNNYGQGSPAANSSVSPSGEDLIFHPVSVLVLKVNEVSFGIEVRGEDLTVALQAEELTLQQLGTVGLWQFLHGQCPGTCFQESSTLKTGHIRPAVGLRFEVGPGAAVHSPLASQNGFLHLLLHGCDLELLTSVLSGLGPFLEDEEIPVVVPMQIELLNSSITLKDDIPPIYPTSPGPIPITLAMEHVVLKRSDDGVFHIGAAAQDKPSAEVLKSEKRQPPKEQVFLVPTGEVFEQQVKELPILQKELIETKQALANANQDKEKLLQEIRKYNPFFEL
UniProt Q9UDW1: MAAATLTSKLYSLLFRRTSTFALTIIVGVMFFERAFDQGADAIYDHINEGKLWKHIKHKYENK
UniProt P06132: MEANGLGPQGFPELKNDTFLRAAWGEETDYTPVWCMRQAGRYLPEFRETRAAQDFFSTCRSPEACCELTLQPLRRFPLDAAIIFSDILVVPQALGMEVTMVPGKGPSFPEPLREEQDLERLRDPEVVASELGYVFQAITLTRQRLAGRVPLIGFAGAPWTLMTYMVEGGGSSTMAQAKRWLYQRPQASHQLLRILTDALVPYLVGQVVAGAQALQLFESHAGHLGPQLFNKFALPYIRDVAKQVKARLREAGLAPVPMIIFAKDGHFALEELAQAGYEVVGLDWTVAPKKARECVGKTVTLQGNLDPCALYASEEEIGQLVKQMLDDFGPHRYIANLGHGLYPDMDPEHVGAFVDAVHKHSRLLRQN

Key:
Test in all cases: log2 fold change, soluble protein after heating vs DMSO (PISA); higher = thermal stabilisation; K562 cells, 10 uM, 30 min; active = over 0.2 and 3.5 SD of the protein, either way, in both replicates (recomputed)
[1] = compound: CC1=C(C=C(C=C1)NC(=O)C2=CC(=CC=C2)C(C)(C)C#N)NC3=CC4=C(C=C3)N=CN(C4=O)C
Method in brief: (§1)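 Thermal stability values are relative to control samples and come from duplicates. They are expressed as log2 fold changes. For measurement, K562 cells (2×10^6 cells/mL) received 10 μM compound for 30 min, and aliquots were heated for 3 min over 48°C-58°C, pooled, and extracted at 4°C in PBS with 0.5% NP-40. Soluble protein, the supernatant after 21,000xg for 90 min, was quantified by TMTpro 16plex LC-MS/MS with equalised channel sums.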

[2] = compound: CC1=C(C=C(C=C1)NC(=O)C2=CC(=CC=C2)N(C)C)NC(=O)C3=CC=C(C=C3)O
Method in brief: as §1

[3] = compound: CC1=CC=C(C=C1)SC2=C3C=C(SC3=CN=C2)C(=O)N
Method in brief: as §1

[4] = compound: CC1=NC(=CC=C1)C2=C(N=C(N2)C(C)(C)C)C3=CC4=NC=CN=C4C=C3
Method in brief: as §1

Nexturastat A = compound: CCCCN(Cc1ccc(C(=O)NO)cc1)C(=O)Nc1ccccc1 [Nexturastat A]
Method in brief: as §1

vemurafenib = compound: CCCS(=O)(=O)Nc1ccc(F)c(C(=O)c2c[nH]c3ncc(-c4ccc(Cl)cc4)cc23)c1F [vemurafenib]
Method in brief: as §1

[5] = compound: CCCS(=O)(=O)Nc1ccc(F)c(C(=O)c2c[nH]c3ncc(Cl)cc23)c1F
Method in brief: as §1

[6] = compound: CCCc1cc(C)[nH]c(=O)c1CNC(=O)c1cc(-c2ccnc(N3CCN(C)CC3)c2)cc2c1cnn2C(C)C
Method in brief: as §1

givinostat = compound: CCN(CC)Cc1ccc2cc(COC(=O)Nc3ccc(C(=O)NO)cc3)ccc2c1 [givinostat]
Method in brief: as §1

barasertib = compound: CCN(CCCOc1ccc2c(Nc3cc(CC(=O)Nc4cccc(F)c4)[nH]n3)ncnc2c1)CCOP(=O)(O)O [barasertib]
Method in brief: as §1

Measured: log2 fold change

UPF1 (UniProt Q92900)
inactive: [1] 0.003 | [2] 0.004 | [3] 0.025 | [4] 0.01 | Nexturastat A 0.009 | vemurafenib 0.023 | [5] 0.034 | [6] 0.009 | givinostat -0.021 | barasertib 0.026

UGGT2 (UniProt Q9NYU1)
inactive: [1] -0.08 | [2] -0.057 | [3] -0.101 | [4] 0 | Nexturastat A 0.002 | vemurafenib -0.137 | [5] -0.106 | [6] -0.096 | givinostat 0 | barasertib -0.033

UPRT (UniProt Q96BW1)
inactive: [1] 0.036 | [2] 0.027 | [3] -0.032 | [4] 0.059 | Nexturastat A -0.093 | vemurafenib -0.011 | [5] -0.018 | [6] -0.056 | givinostat 0.022 | barasertib -0.039

UBFD1 (UniProt O14562)
inactive: [1] -0.02 | [2] -0.025 | [3] 0.087 | [4] 0.023 | Nexturastat A 0 | vemurafenib 0.022 | [5] 0.004 | [6] -0.039 | givinostat -0.001 | barasertib 0.011

USP3 (UniProt Q9Y6I4)
inactive: [1] 0.026 | [2] -0.016 | [3] 0.085 | [4] 0.069 | Nexturastat A 0.01 | vemurafenib 0.112 | [5] 0.192 | [6] -0.069 | givinostat -0.022 | barasertib 0.067

UTP15 (UniProt Q8TED0)
inactive: [1] -0.063 | [2] 0 | [3] -0.05 | [4] -0.113 | Nexturastat A 0.23 | vemurafenib -0.128 | [5] -0.023 | [6] 0.085 | givinostat -0.027 | barasertib -0.141

USF2 (UniProt Q15853)
inactive: [1] 0.053 | [2] 0.021 | [3] -0.081 | [4] -0.035 | Nexturastat A 0 | vemurafenib -0.178 | [5] 0.039 | [6] 0.063 | givinostat 0.042 | barasertib 0.006

VAT1 (UniProt Q99536)
inactive: [1] 0.013 | [2] 0.004 | [3] 0.033 | [4] 0.029 | Nexturastat A -0.074 | vemurafenib 0.05 | [5] 0.059 | [6] 0.014 | givinostat 0.045 | barasertib -0.036

UQCRB (UniProt P14927)
inactive: [1] -0.043 | [2] 0.017 | [3] 0.037 | [4] 0.04 | Nexturastat A -0.021 | vemurafenib -0.027 | [5] -0.059 | [6] -0.025 | givinostat -0.032 | barasertib 0.002

UNC13D isoform 3 (UniProt Q70J99)
inactive: [1] 0.001 | [2] 0.037 | [3] -0.084 | [4] -0.123 | Nexturastat A 0.255 | vemurafenib 0.02 | [5] 0.085 | [6] 0.116 | givinostat 0.214 | barasertib -0.073

VASP (UniProt P50552)
inactive: [1] -0.083 | [2] -0.044 | [3] 0.012 | [4] -0.035 | Nexturastat A 0.123 | vemurafenib 0.058 | [5] 0.017 | [6] 0.062 | givinostat 0.179 | barasertib 0.115

UHRF1BP1 (UniProt Q6BDS2)
inactive: [1] -0.068 | [2] -0.039 | [3] -0.012 | [4] -0.011 | Nexturastat A 0.043 | vemurafenib -0.035 | [5] -0.043 | [6] -0.022 | givinostat -0.012 | barasertib -0.009

UBL5 (UniProt Q9BZL1)
inactive: [1] -0.072 | [2] 0.017 | [3] -0.005 | [4] -0.042 | Nexturastat A -0.027 | vemurafenib 0.052 | [5] 0.006 | [6] -0.015 | givinostat -0.043 | barasertib 0.003

UXT isoform 2 (UniProt Q9UBK9)
active: Nexturastat A 0.904
inactive: [1] 0.008 | [2] 0.003 | [3] 0.039 | [4] -0.074 | vemurafenib -0.023 | [5] -0.013 | [6] 0.041 | givinostat 0.211 | barasertib 0.022

VCP (UniProt P55072)
inactive: [1] -0.007 | [2] 0.016 | [3] -0.012 | [4] -0.008 | Nexturastat A -0.042 | vemurafenib -0.003 | [5] -0.02 | [6] 0.007 | givinostat -0.027 | barasertib -0.018

UQCR10 (UniProt Q9UDW1)
inactive: [1] 0.103 | [2] -0.086 | [3] 0.069 | [4] -0.014 | Nexturastat A -0.049 | vemurafenib -0.042 | [5] -0.018 | [6] 0.007 | givinostat -0.05 | barasertib -0.042

UQCC2 (UniProt Q9BRT2)
inactive: [1] 0.01 | [2] 0.003 | [3] 0.089 | [4] 0.074 | Nexturastat A -0.044 | vemurafenib 0.125 | [5] -0.027 | [6] 0.08 | givinostat -0.001 | barasertib 0.024

VARS (UniProt P26640)
inactive: [1] 0.037 | [2] -0.045 | [3] -0.018 | [4] 0.004 | Nexturastat A 0.021 | vemurafenib 0.014 | [5] 0.056 | [6] 0.03 | givinostat 0.012 | barasertib 0.006

UFD1 isoform 1 (UniProt Q92890)
inactive: [1] 0.02 | [2] -0.025 | [3] 0.037 | [4] 0.106 | Nexturastat A 0.015 | vemurafenib 0 | [5] 0.018 | [6] -0.015 | givinostat 0.032 | barasertib -0.011

UROS (UniProt P10746)
inactive: [1] -0.01 | [2] -0.036 | [3] 0.048 | [4] -0.081 | Nexturastat A -0.109 | vemurafenib -0.005 | [5] 0.032 | [6] 0.129 | givinostat -0.034 | barasertib -0.005

UBXN1 (UniProt Q04323)
inactive: [1] -0.001 | [2] -0.048 | [3] -0.019 | [4] 0.028 | Nexturastat A -0.034 | vemurafenib 0.026 | [5] -0.001 | [6] -0.042 | givinostat 0.047 | barasertib -0.009

UMPS (UniProt P11172)
inactive: [1] -0.005 | [2] 0.004 | [3] 0.049 | [4] 0.025 | Nexturastat A -0.119 | vemurafenib 0.012 | [5] 0.026 | [6] -0.012 | givinostat -0.014 | barasertib 0.01

UFL1 (UniProt O94874)
inactive: [1] -0.009 | [2] -0.089 | [3] 0.011 | [4] 0.048 | Nexturastat A 0.091 | vemurafenib 0.083 | [5] 0.089 | [6] 0.043 | givinostat 0.08 | barasertib 0.031

UQCRQ (UniProt O14949)
inactive: [1] -0.002 | [2] -0.015 | [3] 0.018 | [4] 0.004 | Nexturastat A 0.022 | vemurafenib -0.007 | [5] -0.014 | [6] -0.03 | givinostat -0.045 | barasertib 0.013

USP47 (UniProt Q96K76)
inactive: [1] 0.005 | [2] -0.057 | [3] 0.041 | [4] -0.023 | Nexturastat A 0.078 | vemurafenib -0.007 | [5] 0.071 | [6] 0.051 | givinostat 0.125 | barasertib 0.007

VAPA (UniProt Q9P0L0)
inactive: [1] -0.013 | [2] -0.059 | [3] 0.01 | [4] 0.026 | Nexturastat A -0.162 | vemurafenib -0.003 | [5] -0.014 | [6] -0.029 | givinostat -0.072 | barasertib -0.003

USE1 (UniProt Q9NZ43)
inactive: [1] -0.011 | [2] -0.03 | [3] -0.005 | [4] -0.043 | Nexturastat A 0.115 | vemurafenib 0.006 | [5] 0.002 | [6] 0.018 | givinostat -0.005 | barasertib 0.013

UROD (UniProt P06132)
inactive: [1] -0.045 | [2] 0.022 | [3] 0.013 | [4] 0.029 | Nexturastat A -0.069 | vemurafenib 0.001 | [5] 0.044 | [6] 0.027 | givinostat -0.027 | barasertib 0.001

UBXN7 (UniProt O94888)
inactive: [1] -0.016 | [2] 0.025 | [3] -0.018 | [4] -0.002 | Nexturastat A -0.031 | vemurafenib 0.049 | [5] 0.023 | [6] 0.019 | givinostat -0.018 | barasertib 0.006

USP8 (UniProt P40818)
inactive: [1] -0.014 | [2] 0.03 | [3] 0.054 | [4] -0.016 | Nexturastat A 0.212 | vemurafenib 0.086 | [5] 0.086 | [6] 0.136 | givinostat 0.142 | barasertib 0.039

2 neighbouring records already listed:
VARS (UniProt P26640)
inactive: [1] 0.037 | [2] -0.045 | [3] -0.018 | [4] 0.004 | Nexturastat A 0.021 | vemurafenib 0.014 | [5] 0.056 | [6] 0.03 | givinostat 0.012 | barasertib 0.006

UFD1 isoform 1 (UniProt Q92890)
inactive: [1] 0.02 | [2] -0.025 | [3] 0.037 | [4] 0.106 | Nexturastat A 0.015 | vemurafenib 0 | [5] 0.018 | [6] -0.015 | givinostat 0.032 | barasertib -0.011
